Assay [1] deals with T1, mouse glucocorticoid-induced tumor necrosis factor receptor (mGITR), expressed on the cell surface (mouse) (UniProt O35714).
T1 sequence (looked up): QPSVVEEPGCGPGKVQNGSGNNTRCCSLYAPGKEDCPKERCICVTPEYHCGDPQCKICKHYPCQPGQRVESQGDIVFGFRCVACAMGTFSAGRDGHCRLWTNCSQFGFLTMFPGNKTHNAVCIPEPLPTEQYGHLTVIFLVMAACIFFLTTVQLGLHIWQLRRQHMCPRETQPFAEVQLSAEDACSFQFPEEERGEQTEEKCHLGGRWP
Description: flow cytometry on mGITR transfectants (Jurkat JE6.1), detected with anti-His tag antibody. For orientation: Flow cytometry measures light scatter and fluorescence of single cells or particles in a stream.

The target in assay [2] is T2, mouse glucocorticoid-induced TNF receptor ligand (mGITRL), expressed on the cell surface (mouse) (UniProt Q7TS55).
T2 sequence: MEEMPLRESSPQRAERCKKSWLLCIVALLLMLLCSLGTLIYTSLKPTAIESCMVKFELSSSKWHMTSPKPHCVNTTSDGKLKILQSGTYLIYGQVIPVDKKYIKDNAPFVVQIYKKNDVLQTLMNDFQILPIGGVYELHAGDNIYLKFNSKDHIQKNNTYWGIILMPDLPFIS
The assay can be described thus: flow cytometry on mGITRL transfectants against nontransfectants.

Results are given in words; binding and its absence hold for the method and conditions named. Some entries that bind do so weakly or less than the wild type. Sequences can lack the tags named with a protein.

The source of these data is US20090181459A1.

B1: recombinant mGITRL (extracellular domain, 6xHis tag, from E. coli) (ligand, not shown: small tags and cut ends)
chain: SLKPTAIESCMVKFELSSSKWHMTSPKPHCVNTTSDGKLKILQSGTYLIYGQVIPVDKKYIKDNAPFVVQIYKKNDVLQTLMNDFQILPIGGVYELHAGDNIYLKFNSKDHIQKNNTYWGIILMPDLPFIS
Turning to B1, in assay [1], the binding result is on record as “binds”.

B2: recombinant mGITR-Fc (Alexis Biochemicals) (Fc fusion, mouse, UniProt O35714 20-153, looked up, not shown: a dimerising Fc or GST)
chain: QPSVVEEPGCGPGKVQNGSGNNTRCCSLYAPGKEDCPKERCICVTPEYHCGDPQCKICKHYPCQPGQRVESQGDIVFGFRCVACAMGTFSAGRDGHCRLWTNCSQFGFLTMFPGNKTHNAVCIPEPLPTEQYGH
For the molecule B2, the binding result in assay [2] is “binds”.
